Experimental data as given in paper PMC8358048.
Results are given in words; binding and its absence hold for the method and conditions named. Binding seen in cells or lysates may run through a third protein. Some binding calls cover weakened binding; strength is not graded here.

Protein sequences, listed by entry. Tags and fused reporters are not part of them. Lines headed by an entry give the natural chain unless they say otherwise; changes in a name come on top. Chains listed by the source or under a name are the forms on record and can include a tag or linker. Residues count along the entry.
UNC5B-FL (Unc-5 Netrin Receptor B, isoform with exon 8), GFP-tagged (Q8K1S3, residues 27-945): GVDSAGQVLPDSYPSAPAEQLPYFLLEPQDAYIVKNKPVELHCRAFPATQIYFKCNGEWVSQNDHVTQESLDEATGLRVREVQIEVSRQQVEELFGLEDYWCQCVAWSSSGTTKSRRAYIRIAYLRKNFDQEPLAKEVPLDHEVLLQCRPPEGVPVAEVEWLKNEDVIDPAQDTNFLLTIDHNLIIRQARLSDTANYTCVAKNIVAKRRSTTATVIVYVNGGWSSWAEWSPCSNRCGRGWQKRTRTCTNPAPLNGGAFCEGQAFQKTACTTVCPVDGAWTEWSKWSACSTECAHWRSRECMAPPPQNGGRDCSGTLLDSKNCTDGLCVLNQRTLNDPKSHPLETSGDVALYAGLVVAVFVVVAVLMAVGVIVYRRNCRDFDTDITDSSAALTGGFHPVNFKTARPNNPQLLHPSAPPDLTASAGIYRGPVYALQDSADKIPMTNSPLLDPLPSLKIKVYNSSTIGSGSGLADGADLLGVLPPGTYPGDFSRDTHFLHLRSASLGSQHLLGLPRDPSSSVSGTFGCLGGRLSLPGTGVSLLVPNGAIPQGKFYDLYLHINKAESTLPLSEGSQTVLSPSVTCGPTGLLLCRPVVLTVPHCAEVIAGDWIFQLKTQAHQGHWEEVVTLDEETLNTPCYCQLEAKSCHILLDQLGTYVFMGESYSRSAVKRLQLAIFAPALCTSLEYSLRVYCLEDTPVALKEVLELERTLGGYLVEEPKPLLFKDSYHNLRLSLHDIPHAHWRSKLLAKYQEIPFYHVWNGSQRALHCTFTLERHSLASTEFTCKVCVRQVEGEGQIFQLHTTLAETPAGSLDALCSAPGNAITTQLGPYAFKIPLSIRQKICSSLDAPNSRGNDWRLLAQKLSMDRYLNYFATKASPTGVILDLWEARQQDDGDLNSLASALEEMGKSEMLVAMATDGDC
UNC5B-Δ8 (UNC5B splicing isoform lacking exon 8), GFP-tagged (Q8K1S3, form named): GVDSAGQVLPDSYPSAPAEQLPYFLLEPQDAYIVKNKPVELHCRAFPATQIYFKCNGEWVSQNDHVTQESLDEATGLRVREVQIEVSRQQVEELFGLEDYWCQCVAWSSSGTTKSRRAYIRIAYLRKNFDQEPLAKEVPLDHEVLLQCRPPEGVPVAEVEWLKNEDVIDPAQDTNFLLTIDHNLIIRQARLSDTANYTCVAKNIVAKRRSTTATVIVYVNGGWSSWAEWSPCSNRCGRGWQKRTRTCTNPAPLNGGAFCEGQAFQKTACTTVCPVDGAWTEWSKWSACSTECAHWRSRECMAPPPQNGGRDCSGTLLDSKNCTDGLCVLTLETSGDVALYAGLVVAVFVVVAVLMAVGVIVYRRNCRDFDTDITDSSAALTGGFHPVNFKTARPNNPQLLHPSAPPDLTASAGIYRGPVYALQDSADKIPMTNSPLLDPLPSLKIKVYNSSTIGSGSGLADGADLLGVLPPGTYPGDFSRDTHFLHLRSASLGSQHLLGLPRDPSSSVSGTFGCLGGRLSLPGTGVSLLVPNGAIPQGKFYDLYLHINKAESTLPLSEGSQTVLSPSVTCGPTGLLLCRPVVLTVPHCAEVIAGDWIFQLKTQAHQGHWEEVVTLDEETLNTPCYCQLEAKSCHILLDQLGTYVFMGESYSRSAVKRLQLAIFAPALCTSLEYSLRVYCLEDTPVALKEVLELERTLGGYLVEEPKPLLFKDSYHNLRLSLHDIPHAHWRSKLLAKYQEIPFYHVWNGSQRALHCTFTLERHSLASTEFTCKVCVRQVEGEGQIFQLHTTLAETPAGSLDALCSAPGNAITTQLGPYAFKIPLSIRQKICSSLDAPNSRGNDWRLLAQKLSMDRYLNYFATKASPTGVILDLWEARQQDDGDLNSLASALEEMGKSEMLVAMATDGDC

Key:
[1] = biological target: UNC5B-FL (Unc-5 Netrin Receptor B, isoform with exon 8), GFP-tagged (mouse) (UniProt Q8K1S3); assay: co-IP; HeLa cells co-transfected with GFP-tagged and HA-tagged UNC5B isoforms, treated with Netrin-1 (150 ng/ml) or PBS/0.2% BSA for 30 min; GFP-trap magnetic beads 1 h at 4 °C; IP buffer 50 mM HEPES pH 7.6, 150 mM NaCl, 5 mM EDTA, 0.1% NP-40; immunoblot
[2] = biological target: UNC5B-Δ8 (UNC5B splicing isoform lacking exon 8), GFP-tagged (mouse) (UniProt Q8K1S3); assay: as above

UNC5B-FL (Unc-5 Netrin Receptor B, isoform with exon 8), GFP-tagged (from UniProt Q8K1S3 27-945)
binding [1]: binds

UNC5B-Δ8 (UNC5B splicing isoform lacking exon 8), GFP-tagged (from UniProt Q8K1S3 27-945) (receptor)
binding [2]: binds
